# Earlier results as cited in US20130336953A1, “USE OF CREATINE KINASE FOR PREVENTING OR TREATING ADDICTION TO OPIATES” (UNIVERSITÉ DE STRABOURG, priority 2011, published 2013).
# System: acidic alpha-1-glycoprotein
# Settings: cited from earlier work
compound,measurement,value
CN1CC[C@]23c4c5ccc(O)c4O[C@H]2[C@@H](O)C=C[C@H]3[C@H]1C5 [morphine],binding to acidic alpha-1-glycoprotein,binding weakly
